# Reference: the supplement of paper PMC10849652
# Protein sequences, listed by entry. Tags and fused reporters are not part of them. Lines headed by an entry give the natural chain unless they say otherwise; changes in a name come on top.
# UniProt Q13490, whole entry, looked up: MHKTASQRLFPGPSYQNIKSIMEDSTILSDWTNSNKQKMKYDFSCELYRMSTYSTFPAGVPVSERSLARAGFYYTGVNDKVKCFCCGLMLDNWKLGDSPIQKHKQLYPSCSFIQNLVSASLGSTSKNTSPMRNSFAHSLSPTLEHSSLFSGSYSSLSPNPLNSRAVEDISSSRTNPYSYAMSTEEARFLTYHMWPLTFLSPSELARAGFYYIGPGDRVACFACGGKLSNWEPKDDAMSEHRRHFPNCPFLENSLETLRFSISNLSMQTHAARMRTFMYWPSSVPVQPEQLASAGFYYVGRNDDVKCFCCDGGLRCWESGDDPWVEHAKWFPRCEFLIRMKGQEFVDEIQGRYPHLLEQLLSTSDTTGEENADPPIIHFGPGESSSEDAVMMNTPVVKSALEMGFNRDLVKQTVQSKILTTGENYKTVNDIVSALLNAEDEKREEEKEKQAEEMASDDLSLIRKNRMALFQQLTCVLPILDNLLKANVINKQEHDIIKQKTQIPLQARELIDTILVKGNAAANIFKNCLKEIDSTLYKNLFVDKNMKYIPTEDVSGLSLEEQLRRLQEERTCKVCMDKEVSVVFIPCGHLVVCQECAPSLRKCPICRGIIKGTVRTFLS
# UniProt Q86WA6: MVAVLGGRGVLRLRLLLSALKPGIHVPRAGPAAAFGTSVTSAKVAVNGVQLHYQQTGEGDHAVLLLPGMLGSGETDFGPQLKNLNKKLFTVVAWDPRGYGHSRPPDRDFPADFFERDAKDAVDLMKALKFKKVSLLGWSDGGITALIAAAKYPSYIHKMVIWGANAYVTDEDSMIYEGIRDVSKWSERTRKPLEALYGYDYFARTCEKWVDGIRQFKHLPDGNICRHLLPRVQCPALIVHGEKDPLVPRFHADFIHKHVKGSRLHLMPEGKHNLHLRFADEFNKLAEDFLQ
# UniProt Q6QNY0: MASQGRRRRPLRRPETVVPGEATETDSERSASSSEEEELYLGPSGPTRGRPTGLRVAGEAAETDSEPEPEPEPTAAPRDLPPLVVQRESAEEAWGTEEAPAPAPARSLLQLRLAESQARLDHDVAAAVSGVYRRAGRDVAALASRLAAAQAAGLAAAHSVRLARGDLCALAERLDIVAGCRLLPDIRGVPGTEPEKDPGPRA
# UniProt P56945: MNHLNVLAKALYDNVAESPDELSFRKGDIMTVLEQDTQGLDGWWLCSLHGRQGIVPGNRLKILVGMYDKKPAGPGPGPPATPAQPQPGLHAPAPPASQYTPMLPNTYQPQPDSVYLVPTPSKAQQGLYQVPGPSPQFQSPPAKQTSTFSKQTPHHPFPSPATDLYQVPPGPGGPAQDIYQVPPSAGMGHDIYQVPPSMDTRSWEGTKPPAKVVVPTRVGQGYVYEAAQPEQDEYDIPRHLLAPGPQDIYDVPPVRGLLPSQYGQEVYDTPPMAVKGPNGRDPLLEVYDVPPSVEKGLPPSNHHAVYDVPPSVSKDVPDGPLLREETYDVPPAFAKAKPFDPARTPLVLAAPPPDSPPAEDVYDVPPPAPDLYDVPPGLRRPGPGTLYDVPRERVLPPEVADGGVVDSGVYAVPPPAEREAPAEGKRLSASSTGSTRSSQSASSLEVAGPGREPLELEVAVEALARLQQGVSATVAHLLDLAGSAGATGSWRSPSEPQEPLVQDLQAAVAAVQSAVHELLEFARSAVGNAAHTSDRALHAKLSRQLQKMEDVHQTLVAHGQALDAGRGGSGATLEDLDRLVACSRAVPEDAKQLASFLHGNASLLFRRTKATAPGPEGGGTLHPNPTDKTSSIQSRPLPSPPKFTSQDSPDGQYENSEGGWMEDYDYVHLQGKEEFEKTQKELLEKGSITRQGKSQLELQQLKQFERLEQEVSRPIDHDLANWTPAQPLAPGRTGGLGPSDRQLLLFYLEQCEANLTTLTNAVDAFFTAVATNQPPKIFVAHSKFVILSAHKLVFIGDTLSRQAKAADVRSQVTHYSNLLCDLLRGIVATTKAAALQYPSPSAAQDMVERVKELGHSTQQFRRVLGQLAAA
# UniProt Q92560: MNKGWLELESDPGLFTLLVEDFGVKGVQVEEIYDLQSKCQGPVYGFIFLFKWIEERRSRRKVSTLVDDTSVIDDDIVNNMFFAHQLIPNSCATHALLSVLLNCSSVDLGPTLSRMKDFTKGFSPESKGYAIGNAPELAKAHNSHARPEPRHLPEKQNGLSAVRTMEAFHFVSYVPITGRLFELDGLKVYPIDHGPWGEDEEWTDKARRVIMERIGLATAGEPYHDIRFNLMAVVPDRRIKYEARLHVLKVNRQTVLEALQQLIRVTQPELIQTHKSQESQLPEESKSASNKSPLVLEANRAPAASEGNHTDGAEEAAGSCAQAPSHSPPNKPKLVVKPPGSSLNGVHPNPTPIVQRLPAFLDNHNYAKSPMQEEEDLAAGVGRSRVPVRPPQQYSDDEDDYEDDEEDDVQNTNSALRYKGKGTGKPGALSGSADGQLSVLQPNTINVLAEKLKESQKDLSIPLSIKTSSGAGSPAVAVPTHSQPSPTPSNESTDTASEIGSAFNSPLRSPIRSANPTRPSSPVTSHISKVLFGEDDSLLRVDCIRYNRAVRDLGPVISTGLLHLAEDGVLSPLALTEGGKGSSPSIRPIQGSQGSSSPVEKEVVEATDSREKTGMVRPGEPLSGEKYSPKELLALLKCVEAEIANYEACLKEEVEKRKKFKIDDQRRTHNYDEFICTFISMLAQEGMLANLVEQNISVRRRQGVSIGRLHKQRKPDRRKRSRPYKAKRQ
# UniProt Q9H0E9, whole entry, looked up: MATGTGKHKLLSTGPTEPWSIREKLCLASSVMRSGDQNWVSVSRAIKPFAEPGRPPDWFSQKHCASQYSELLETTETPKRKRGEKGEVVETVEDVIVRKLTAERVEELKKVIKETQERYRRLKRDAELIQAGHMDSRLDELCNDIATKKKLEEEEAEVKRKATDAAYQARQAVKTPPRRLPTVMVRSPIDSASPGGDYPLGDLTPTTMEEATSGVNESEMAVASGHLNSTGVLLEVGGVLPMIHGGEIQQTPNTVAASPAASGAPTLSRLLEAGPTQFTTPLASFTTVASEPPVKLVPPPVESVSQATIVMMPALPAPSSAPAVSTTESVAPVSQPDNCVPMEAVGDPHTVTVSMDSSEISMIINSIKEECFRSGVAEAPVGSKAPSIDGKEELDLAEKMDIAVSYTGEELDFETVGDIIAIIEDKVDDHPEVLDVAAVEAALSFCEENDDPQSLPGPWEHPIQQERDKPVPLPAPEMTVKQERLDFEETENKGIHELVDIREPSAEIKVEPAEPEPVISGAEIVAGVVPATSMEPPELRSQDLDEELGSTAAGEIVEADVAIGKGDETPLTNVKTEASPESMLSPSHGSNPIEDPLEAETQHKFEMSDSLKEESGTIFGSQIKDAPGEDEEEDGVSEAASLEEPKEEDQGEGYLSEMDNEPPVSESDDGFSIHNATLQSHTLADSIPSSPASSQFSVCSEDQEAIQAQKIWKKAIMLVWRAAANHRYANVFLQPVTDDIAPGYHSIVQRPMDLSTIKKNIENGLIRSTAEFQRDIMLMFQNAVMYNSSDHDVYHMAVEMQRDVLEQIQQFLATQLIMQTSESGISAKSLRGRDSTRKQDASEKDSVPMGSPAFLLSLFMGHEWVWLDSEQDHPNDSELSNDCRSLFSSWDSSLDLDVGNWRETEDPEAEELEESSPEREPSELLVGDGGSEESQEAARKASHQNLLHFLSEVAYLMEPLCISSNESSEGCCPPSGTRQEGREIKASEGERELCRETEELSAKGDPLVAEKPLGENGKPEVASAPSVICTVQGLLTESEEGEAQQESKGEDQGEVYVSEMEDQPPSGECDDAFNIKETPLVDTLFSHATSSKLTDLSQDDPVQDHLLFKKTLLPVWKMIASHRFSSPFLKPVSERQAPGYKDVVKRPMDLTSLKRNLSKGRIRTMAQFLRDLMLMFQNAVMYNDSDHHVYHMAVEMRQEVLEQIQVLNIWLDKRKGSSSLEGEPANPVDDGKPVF
# UniProt Q13825: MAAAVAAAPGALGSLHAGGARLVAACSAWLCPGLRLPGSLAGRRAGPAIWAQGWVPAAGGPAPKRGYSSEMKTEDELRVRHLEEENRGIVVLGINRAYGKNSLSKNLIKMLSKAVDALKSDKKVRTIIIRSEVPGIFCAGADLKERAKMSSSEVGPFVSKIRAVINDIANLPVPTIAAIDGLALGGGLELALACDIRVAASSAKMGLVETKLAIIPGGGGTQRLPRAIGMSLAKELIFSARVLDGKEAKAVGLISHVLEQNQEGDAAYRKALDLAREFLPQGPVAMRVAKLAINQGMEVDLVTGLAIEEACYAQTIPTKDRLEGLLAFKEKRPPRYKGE
# UniProt Q9P287, whole entry, looked up: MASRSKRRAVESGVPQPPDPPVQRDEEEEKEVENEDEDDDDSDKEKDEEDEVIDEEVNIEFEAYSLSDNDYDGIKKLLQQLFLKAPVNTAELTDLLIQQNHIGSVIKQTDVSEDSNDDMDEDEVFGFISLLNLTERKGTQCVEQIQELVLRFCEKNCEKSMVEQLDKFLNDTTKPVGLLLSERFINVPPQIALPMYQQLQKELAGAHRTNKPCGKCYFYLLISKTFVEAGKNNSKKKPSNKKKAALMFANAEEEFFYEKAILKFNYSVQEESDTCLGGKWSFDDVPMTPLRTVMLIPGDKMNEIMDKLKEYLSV
# UniProt Q14137: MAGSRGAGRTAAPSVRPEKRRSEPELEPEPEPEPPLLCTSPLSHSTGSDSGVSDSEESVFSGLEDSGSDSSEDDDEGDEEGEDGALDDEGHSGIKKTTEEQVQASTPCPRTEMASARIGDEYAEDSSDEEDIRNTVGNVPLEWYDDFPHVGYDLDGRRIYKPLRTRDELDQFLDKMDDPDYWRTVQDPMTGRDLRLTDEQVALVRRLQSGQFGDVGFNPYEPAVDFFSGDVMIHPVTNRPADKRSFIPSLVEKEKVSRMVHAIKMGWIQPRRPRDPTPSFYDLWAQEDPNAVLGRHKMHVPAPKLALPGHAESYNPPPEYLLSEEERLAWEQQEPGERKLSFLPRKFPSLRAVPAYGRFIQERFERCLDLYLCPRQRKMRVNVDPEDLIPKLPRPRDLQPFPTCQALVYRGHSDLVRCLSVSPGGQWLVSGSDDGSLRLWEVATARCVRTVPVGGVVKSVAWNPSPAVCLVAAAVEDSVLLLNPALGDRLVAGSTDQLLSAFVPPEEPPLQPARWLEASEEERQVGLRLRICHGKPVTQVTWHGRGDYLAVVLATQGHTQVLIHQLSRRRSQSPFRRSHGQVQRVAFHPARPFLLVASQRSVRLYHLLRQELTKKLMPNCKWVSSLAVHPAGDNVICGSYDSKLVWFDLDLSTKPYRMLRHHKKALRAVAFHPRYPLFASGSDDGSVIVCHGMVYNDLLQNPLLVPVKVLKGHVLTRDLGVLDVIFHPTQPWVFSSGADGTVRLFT
# UniProt Q8TDN6: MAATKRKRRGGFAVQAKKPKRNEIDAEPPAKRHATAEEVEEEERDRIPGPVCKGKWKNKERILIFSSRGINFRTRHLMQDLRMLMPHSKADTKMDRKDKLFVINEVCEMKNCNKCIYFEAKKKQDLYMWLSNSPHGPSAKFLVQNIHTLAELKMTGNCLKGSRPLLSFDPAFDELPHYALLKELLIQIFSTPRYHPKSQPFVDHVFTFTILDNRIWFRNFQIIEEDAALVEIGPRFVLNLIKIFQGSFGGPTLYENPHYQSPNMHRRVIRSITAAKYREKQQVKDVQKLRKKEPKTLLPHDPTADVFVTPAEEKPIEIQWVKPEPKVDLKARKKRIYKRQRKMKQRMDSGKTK
# UniProt Q00973: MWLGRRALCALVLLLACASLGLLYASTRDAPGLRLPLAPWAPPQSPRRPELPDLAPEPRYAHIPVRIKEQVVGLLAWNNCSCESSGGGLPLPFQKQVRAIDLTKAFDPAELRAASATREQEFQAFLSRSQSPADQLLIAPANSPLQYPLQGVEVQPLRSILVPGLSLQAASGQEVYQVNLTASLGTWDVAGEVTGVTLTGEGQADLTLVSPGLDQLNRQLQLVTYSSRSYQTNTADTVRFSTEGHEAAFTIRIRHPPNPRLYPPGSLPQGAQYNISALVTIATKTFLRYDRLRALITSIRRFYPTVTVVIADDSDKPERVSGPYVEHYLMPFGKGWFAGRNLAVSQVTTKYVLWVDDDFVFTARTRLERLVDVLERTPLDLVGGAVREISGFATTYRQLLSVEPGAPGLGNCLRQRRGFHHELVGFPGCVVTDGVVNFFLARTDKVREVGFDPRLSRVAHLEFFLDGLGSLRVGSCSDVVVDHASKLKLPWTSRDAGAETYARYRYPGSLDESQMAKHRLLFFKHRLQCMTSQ
# UniProt P30043: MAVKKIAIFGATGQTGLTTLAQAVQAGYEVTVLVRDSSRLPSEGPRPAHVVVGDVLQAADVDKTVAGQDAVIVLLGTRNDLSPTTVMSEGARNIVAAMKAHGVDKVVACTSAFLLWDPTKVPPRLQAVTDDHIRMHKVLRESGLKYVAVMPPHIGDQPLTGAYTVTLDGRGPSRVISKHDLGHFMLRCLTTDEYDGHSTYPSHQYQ
# This is one part of the list. Residues, ends and D or L forms follow the SMILES beside them. *: point of attachment. Cbz = O=C(OCc1ccccc1)*
# Key:
# Experiment in all cases: log2 fold change, soluble protein after heating vs DMSO (PISA); higher = thermal stabilisation; K562 cells, 10 uM, 30 min; active = over 0.2 and 3.5 SD of the protein, either way, in both replicates (recomputed)
# IRAK-1-4 Inhibitor I = compound: C1COCCN1CCN2C3=CC=CC=C3N=C2NC(=O)C4=CC(=CC=C4)[N+](=O)[O-] [IRAK-1-4 Inhibitor I]
# How it was run: (§1)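 Values are thermal stability changes relative to control samples and are taken from duplicates. They are stated as log2 fold changes. Before quantification by TMTpro 16plex LC-MS/MS with equalised channel sums, K562 cells at 2×10^6 cells/mL were treated with 10 μM compound for 30 min, heated in aliquots for 3 min across 48°C-58°C, pooled, extracted in PBS with 0.5% NP-40 at 4°C, and centrifuged at 21,000xg for 90 min to give the soluble supernatant.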
# ibrutinib = compound: C=CC(=O)N1CCC[C@@H](n2nc(-c3ccc(Oc4ccccc4)cc3)c3c(N)ncnc32)C1 [ibrutinib]
# How it was run: as §1
# [1] = compound: CC(=O)c1cnc2ccc(-c3cc(Cl)c(O)c(Cl)c3)nc2c1N[C@H]1CC[C@H](CN(C)C)CC1
# How it was run: as §1
# ralimetinib = compound: CC(C)(C)Cn1c(N)nc2ccc(-c3[nH]c(C(C)(C)C)nc3-c3ccc(F)cc3)nc21 [ralimetinib]
# How it was run: as §1
# [2] = compound: CC(C)(O)CC(=O)NCCn1ccc2ncnc(Nc3ccc(Oc4cccc(C(F)(F)F)c4)c(Cl)c3)c21
# How it was run: as §1
# [3] = compound: CC(C)C1=C2N=C(C=C(N2N=C1)NCC3=CC=CC=C3)NCCCCCCN
# How it was run: as §1
# [4] = compound: CC(C)C[C@@H](C=O)NC(=O)[C@H](CC(C)C)NC(=O)[C@H](CC(C)C)NC(=O)OCc1ccccc1
# How it was run: as §1
# pinometostat = compound: CC(C)N(C[C@H]1O[C@@H](n2cnc3c(N)ncnc32)[C@H](O)[C@@H]1O)[C@H]1C[C@@H](CCc2nc3cc(C(C)(C)C)ccc3[nH]2)C1 [pinometostat]
# How it was run: as §1
# [5] = compound: CC1=C(C(CC(=O)N1)C2=CC=C(C=C2)C(F)(F)F)C(=O)NC3=C(C=C4C(=C3)C=NN4)F
# How it was run: as §1
# [6] = compound: CC1=C(C2=C(C=C1)C(=O)C3=CC=CC=C3N2CCCN)C
# How it was run: as §1
# [7] = compound: CC1=C(C=C(C=C1)NC(=O)C2=CC(=CC=C2)C(C)(C)C#N)NC3=CC4=C(C=C3)N=CN(C4=O)C
# How it was run: as §1
# [8] = compound: CC1=C(C=C(C=C1)NC(=O)C2=CC(=CC=C2)N(C)C)NC(=O)C3=CC=C(C=C3)O
# How it was run: as §1
# [9] = compound: CC1=CC=C(C=C1)SC2=C3C=C(SC3=CN=C2)C(=O)N
# How it was run: as §1
# [10] = compound: CC1=NC(=CC=C1)C2=C(N=C(N2)C(C)(C)C)C3=CC4=NC=CN=C4C=C3
# How it was run: as §1
# Nexturastat A = compound: CCCCN(Cc1ccc(C(=O)NO)cc1)C(=O)Nc1ccccc1 [Nexturastat A]
# How it was run: as §1
# vemurafenib = compound: CCCS(=O)(=O)Nc1ccc(F)c(C(=O)c2c[nH]c3ncc(-c4ccc(Cl)cc4)cc23)c1F [vemurafenib]
# How it was run: as §1
# [11] = compound: CCCS(=O)(=O)Nc1ccc(F)c(C(=O)c2c[nH]c3ncc(Cl)cc23)c1F
# How it was run: as §1
# [12] = compound: CCCc1cc(C)[nH]c(=O)c1CNC(=O)c1cc(-c2ccnc(N3CCN(C)CC3)c2)cc2c1cnn2C(C)C
# How it was run: as §1
# givinostat = compound: CCN(CC)Cc1ccc2cc(COC(=O)Nc3ccc(C(=O)NO)cc3)ccc2c1 [givinostat]
# How it was run: as §1
# barasertib = compound: CCN(CCCOc1ccc2c(Nc3cc(CC(=O)Nc4cccc(F)c4)[nH]n3)ncnc2c1)CCOP(=O)(O)O [barasertib]
# How it was run: as §1
Target,log2 fold change (IRAK-1-4 Inhibitor I),log2 fold change (ibrutinib),log2 fold change [1],log2 fold change (ralimetinib),log2 fold change [2],log2 fold change [3],log2 fold change [4],log2 fold change (pinometostat),log2 fold change [5],log2 fold change [6],log2 fold change [7],log2 fold change [8],log2 fold change [9],log2 fold change [10],log2 fold change (Nexturastat A),log2 fold change (vemurafenib),log2 fold change [11],log2 fold change [12],log2 fold change (givinostat),log2 fold change (barasertib)
BIRC2 (UniProt Q13490),inactive: 0.018,inactive: -0.004,inactive: -0.071,inactive: -0.051,inactive: 0.017,inactive: -0.014,inactive: -0.009,inactive: 0,inactive: -0.058,inactive: -0.012,inactive: -0.02,inactive: 0.007,inactive: 0.004,inactive: 0.013,inactive: -0.106,inactive: 0.002,inactive: -0.054,inactive: -0.082,inactive: 0.053,inactive: 0.019
BAHCC1 (UniProt Q9P281),inactive: -0.075,inactive: -0.149,inactive: -0.134,inactive: -0.328,inactive: 0.095,inactive: -0.001,inactive: 0.126,inactive: -0.001,inactive: 0.034,inactive: 0.08,inactive: 0.009,inactive: -0.046,inactive: -0.106,inactive: -0.072,inactive: -0.057,inactive: -0.163,inactive: -0.244,inactive: -0.522,inactive: 0.043,inactive: 0.061
BPHL (UniProt Q86WA6),inactive: 0.009,inactive: -0.062,inactive: -0.034,inactive: -0.045,inactive: -0.023,inactive: 0.123,inactive: 0.071,inactive: 0.061,–,inactive: -0.244,inactive: -0.037,inactive: -0.031,inactive: -0.058,inactive: 0.017,inactive: -0.205,inactive: 0.004,inactive: -0.062,inactive: 0.057,inactive: 0.023,inactive: -0.006
BLOC1S3 (UniProt Q6QNY0),inactive: 0.018,inactive: -0.037,active: 0.427,inactive: -0.033,inactive: -0.058,inactive: 0.005,inactive: -0.045,inactive: -0.041,–,inactive: 0.076,inactive: -0.03,inactive: 0.049,inactive: 0.046,inactive: 0.052,inactive: -0.031,inactive: -0.049,inactive: -0.029,inactive: -0.058,inactive: -0.016,inactive: 0.021
BCAR1 isoform 6 (UniProt P56945),inactive: -0.086,inactive: -0.035,inactive: 0.031,inactive: 0.014,inactive: -0.026,inactive: -0.031,inactive: 0.123,inactive: 0.122,–,inactive: -0.034,inactive: 0.026,inactive: -0.043,inactive: -0.008,inactive: 0.034,inactive: 0.102,inactive: 0.016,inactive: -0.003,–,inactive: 0.013,inactive: 0.071
BAP1 (UniProt Q92560),inactive: -0.038,inactive: -0.056,inactive: -0.125,inactive: 0.06,inactive: -0.014,inactive: -0.217,inactive: 0.048,inactive: 0.163,–,inactive: -0.17,inactive: -0.067,inactive: -0.088,inactive: -0.149,inactive: -0.058,active: 0.403,inactive: -0.089,inactive: -0.055,inactive: 0.085,active: 0.495,inactive: -0.019
BECN1 (UniProt Q14457),inactive: -0.003,inactive: -0.018,inactive: 0.003,inactive: -0.004,inactive: -0.011,inactive: -0.031,inactive: -0.015,inactive: -0.032,–,inactive: 0.084,inactive: -0.04,inactive: 0.029,inactive: 0,inactive: 0.04,inactive: 0.015,inactive: 0.055,inactive: -0.01,inactive: -0.024,inactive: -0.018,inactive: -0.012
BRD8 isoform 2 (UniProt Q9H0E9),inactive: 0.028,inactive: 0,inactive: 0.036,inactive: -0.103,inactive: 0.021,inactive: -0.003,inactive: 0.093,inactive: 0.01,–,inactive: -0.071,inactive: -0.013,inactive: -0.333,inactive: -0.044,inactive: -0.023,inactive: -0.023,inactive: 0.183,inactive: 0.06,–,inactive: -0.126,inactive: -0.039
AUH (UniProt Q13825),inactive: -0.237,inactive: 0.031,inactive: 0.036,inactive: -0.003,–,inactive: 0.084,inactive: 0.026,inactive: 0.28,–,inactive: 0.032,–,inactive: -0.007,inactive: -0.107,inactive: 0.082,–,inactive: 0.091,inactive: 0.008,inactive: -0.185,inactive: 0.279,inactive: 0.096
BCCIP isoform 2 (UniProt Q9P287),inactive: 0.013,inactive: -0.025,inactive: 0.008,inactive: -0.048,inactive: 0.012,inactive: 0.008,inactive: -0.012,inactive: 0.029,–,inactive: 0.077,inactive: 0.042,inactive: -0.055,inactive: -0.015,inactive: 0.022,inactive: -0.065,inactive: 0.008,inactive: -0.003,inactive: -0.099,inactive: -0.066,inactive: 0.026
BOP1 (UniProt Q14137),inactive: -0.039,inactive: 0.01,inactive: -0.083,inactive: 0.041,inactive: 0.119,inactive: -0.068,inactive: 0.031,inactive: 0.021,–,inactive: -0.078,inactive: -0.06,inactive: 0.007,inactive: 0.015,inactive: 0.023,inactive: 0.162,inactive: 0.047,inactive: -0.006,inactive: 0.055,inactive: 0.09,inactive: -0.054
BCCIP (UniProt Q9P287),inactive: -0.025,inactive: -0.063,inactive: -0.06,inactive: -0.005,inactive: 0.002,inactive: 0.035,inactive: 0.015,inactive: 0.073,–,active: 0.255,inactive: -0.023,inactive: -0.015,inactive: -0.009,inactive: -0.01,inactive: -0.002,inactive: 0.02,inactive: 0.036,inactive: -0.004,inactive: 0.035,inactive: 0.033
BAIAP2 (UniProt Q9UQB8),inactive: -0.016,inactive: -0.032,active: -0.265,inactive: -0.034,inactive: -0.033,inactive: -0.056,inactive: 0.062,inactive: 0,–,inactive: 0.041,inactive: -0.019,inactive: 0.01,inactive: 0.007,inactive: -0.012,inactive: 0.041,inactive: 0.021,inactive: 0.068,inactive: 0.048,inactive: 0.029,inactive: 0.048
BRIX1 (UniProt Q8TDN6),inactive: -0.1,inactive: -0.011,inactive: 0.021,inactive: 0.133,inactive: 0.091,inactive: 0.137,inactive: 0.041,inactive: 0.361,–,active: -1.43,inactive: 0.038,inactive: -0.061,inactive: -0.09,inactive: -0.134,inactive: 0.37,inactive: -0.11,inactive: 0.008,inactive: 0.159,inactive: 0.15,inactive: -0.197
B4GALNT1 (UniProt Q00973),inactive: 0.01,inactive: -0.159,inactive: -0.188,inactive: -0.129,inactive: 0.017,inactive: 0.038,inactive: 0.052,inactive: -0.101,–,inactive: 0.057,inactive: 0.075,inactive: -0.028,inactive: -0.109,inactive: 0.005,inactive: 0.096,inactive: -0.172,inactive: -0.044,inactive: -0.028,inactive: -0.123,inactive: 0.104
BLVRB (UniProt P30043),inactive: 0.075,inactive: 0.037,inactive: 0.154,inactive: 0.056,inactive: -0.019,inactive: -0.048,inactive: -0.037,inactive: -0.005,–,inactive: 0.059,inactive: 0.094,inactive: -0.023,inactive: -0.025,inactive: 0.027,inactive: -0.014,inactive: 0.069,inactive: 0.063,inactive: 0.037,inactive: 0.03,inactive: 0.025
BID isoform 2 (UniProt P55957),inactive: 0.052,inactive: 0.008,inactive: -0.039,inactive: -0.038,inactive: -0.053,inactive: 0.105,inactive: 0.012,inactive: -0.018,–,inactive: 0.074,inactive: -0.054,inactive: -0.02,inactive: 0.029,inactive: 0.012,inactive: -0.056,inactive: 0.117,inactive: 0.001,inactive: 0.016,inactive: -0.001,inactive: -0.01

# Reformatted with bars between the fields: entries from further up
Target | log2 fold change (IRAK-1-4 Inhibitor I) | log2 fold change (ibrutinib) | log2 fold change [1] | log2 fold change (ralimetinib) | log2 fold change [2] | log2 fold change [3] | log2 fold change [4] | log2 fold change (pinometostat) | log2 fold change [5] | log2 fold change [6] | log2 fold change [7] | log2 fold change [8] | log2 fold change [9] | log2 fold change [10] | log2 fold change (Nexturastat A) | log2 fold change (vemurafenib) | log2 fold change [11] | log2 fold change [12] | log2 fold change (givinostat) | log2 fold change (barasertib)
BECN1 (UniProt Q14457) | inactive: -0.003 | inactive: -0.018 | inactive: 0.003 | inactive: -0.004 | inactive: -0.011 | inactive: -0.031 | inactive: -0.015 | inactive: -0.032 | – | inactive: 0.084 | inactive: -0.04 | inactive: 0.029 | inactive: 0 | inactive: 0.04 | inactive: 0.015 | inactive: 0.055 | inactive: -0.01 | inactive: -0.024 | inactive: -0.018 | inactive: -0.012
BRD8 isoform 2 (UniProt Q9H0E9) | inactive: 0.028 | inactive: 0 | inactive: 0.036 | inactive: -0.103 | inactive: 0.021 | inactive: -0.003 | inactive: 0.093 | inactive: 0.01 | – | inactive: -0.071 | inactive: -0.013 | inactive: -0.333 | inactive: -0.044 | inactive: -0.023 | inactive: -0.023 | inactive: 0.183 | inactive: 0.06 | – | inactive: -0.126 | inactive: -0.039
